Laboratory results published in patent publication US20040053231A1.
No constants are given. Whether binding was seen depends on the method and setting. Some binding calls cover weakened binding; strength is not graded here.

Chains of the proteins cited; added tags and fusions are not shown. Lines headed by an entry give the natural chain unless they say otherwise; changes in a name come on top.
UniProt P04386: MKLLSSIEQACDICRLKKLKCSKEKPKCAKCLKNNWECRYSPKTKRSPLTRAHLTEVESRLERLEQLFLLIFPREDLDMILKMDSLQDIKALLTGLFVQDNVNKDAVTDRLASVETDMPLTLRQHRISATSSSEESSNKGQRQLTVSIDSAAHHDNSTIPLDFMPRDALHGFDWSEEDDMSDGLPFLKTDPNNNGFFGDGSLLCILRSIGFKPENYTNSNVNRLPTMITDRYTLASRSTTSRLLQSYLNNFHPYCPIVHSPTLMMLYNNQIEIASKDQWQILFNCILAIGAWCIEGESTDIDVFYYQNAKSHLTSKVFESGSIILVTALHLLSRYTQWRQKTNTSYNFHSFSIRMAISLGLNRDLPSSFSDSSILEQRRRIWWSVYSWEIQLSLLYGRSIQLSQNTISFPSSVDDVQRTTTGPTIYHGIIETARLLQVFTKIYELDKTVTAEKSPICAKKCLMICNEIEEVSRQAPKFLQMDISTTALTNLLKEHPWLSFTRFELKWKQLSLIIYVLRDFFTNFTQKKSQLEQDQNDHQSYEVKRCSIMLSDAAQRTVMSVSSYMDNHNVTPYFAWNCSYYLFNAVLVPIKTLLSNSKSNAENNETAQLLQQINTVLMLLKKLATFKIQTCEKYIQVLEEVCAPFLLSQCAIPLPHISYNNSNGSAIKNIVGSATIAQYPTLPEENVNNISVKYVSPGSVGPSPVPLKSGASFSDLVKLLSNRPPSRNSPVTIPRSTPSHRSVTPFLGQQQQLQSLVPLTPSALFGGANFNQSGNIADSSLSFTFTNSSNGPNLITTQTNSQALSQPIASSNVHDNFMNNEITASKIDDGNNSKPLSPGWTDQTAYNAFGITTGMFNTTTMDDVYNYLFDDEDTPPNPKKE
UniProt Q96RK1: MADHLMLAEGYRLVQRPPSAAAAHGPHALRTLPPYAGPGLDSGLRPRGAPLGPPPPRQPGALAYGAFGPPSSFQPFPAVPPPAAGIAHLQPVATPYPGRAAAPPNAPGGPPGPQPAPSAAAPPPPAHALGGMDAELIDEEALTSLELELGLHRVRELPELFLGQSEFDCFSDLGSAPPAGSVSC

Key:
GAL4-p300(1-743) = GAL4-p300(1-743) (UniProt P04386); experiment: mammalian two-hybrid, Hep3B cells (FIG. 2C)
GAL4-p300(1-596) = GAL4-p300(1-596) (UniProt P04386); experiment: mammalian two-hybrid, Hep3B cells (FIG. 2C)
GAL4-p300 full-length = GAL4-p300 full-length (UniProt P04386); experiment: mammalian two-hybrid, Hep3B cells (FIG. 2C)
[1] = target: GAL4-CH1 (residues 300-528 of p300 fused to the DNA-binding domain of GAL4) (UniProt P04386); experiment: mammalian two-hybrid
[2] = target: GAL4-CH1 (residues 300-528 of p300 fused to the DNA-binding domain of GAL4) (UniProt P04386); experiment: mammalian two-hybrid, Hep3B cells
[3] = target: GAL4-CH1 (residues 300-528 of p300 fused to the DNA-binding domain of GAL4) (UniProt P04386); experiment: mammalian two-hybrid, Hep3B cells (FIG. 2B)

Measured: binding

VP16-HCITEDX (from UniProt Q96RK1 1-184)
binds: GAL4-p300(1-743) | GAL4-p300(1-596) | GAL4-p300 full-length | [1] | [2] | [3]
